From US20140329905A1, “HISTONE DEACETYLASE 10-INHIBITOR CO-TREATMENT IN CANCER” (Deutsches Krebsforschungszentrum, priority 2011, published 2014)
For at least one compound, name, drawing or mass did not settle the structure.

Test system: BE(2)-C cells
Assay: Acridine orange FACS quantification of acidic lysosomes
Type: cell-based, human
Conditions: FIG. 2, FIG. 5C, chloroquine 25 μM, rapamycin 100 nM
Experimental: For quantification of acidic lysosomes, the amount of green respectively red fluorescence was determined, since the acidification of (auto-)lysosomes causes a shift from green to red fluorescence. […] Therefore, the cytoplasm and nucleolus glow bright green, whereas acidic compartments shine bright red. By comparing the mean red-to-green fluorescence ratio within different cell populations, detection and quantification of the acidic compartment is possible. Cells were stained with phenol red-free medium containing 1 μg/ml acridine orange (Sigma) at 37° C. for 30 min, collected and resuspended in 300 μl phenolred-free medium for FACS analysis.

Which “induction of acidic lysosomes and late endosomes” value does the source give for `CO[C@H]1C[C@@H]2CC[C@@H](C)[C@@](O)(O2)C(=O)C(=O)N2CCCC[C@H]2C(=O)O[C@H]([C@H](C)C[C@@H]2CC[C@@H](O)[C@H](OC)C2)CC(=O)[C@H](C)/C=C(\C)[C@@H](O)[C@@H](OC)C(=O)[C@H](C)C[C@H](C)/C=C/C=C/C=C/1C` [rapamycin] here?
Its value is “induced accumulation of acidic lysosomes”.
